# Measurements reported in PubChem BioAssay AID1259308 (NCATS, 2017).
# Assay: 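Genes whose loss raises luciferase production in HEK293 cells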 (primary screen)
# Cell system: human HEK293 embryonic kidney cells stably expressing firefly luciferase (HEK-CMV-Luc2-Hygro)
# Knock-down reagent: single siRNA against human genes, 0.8 pmol siRNA per well
# Duration: 72 h
# Read-out: 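Reporter luminescence and viable-cell signal on separate replicate plates, given as percent of non-targeting control and median/MAD z-scores, plus per-cell luciferase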
# Direction: total luciferase, z-score and total luciferase, % of control: higher = more reporter protein produced; luciferase per cell, z-score: higher = more reporter output per viable cell
# Hit rule: 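An siRNA counts as active if its total luciferase robust z-score exceeds 3; genes with two or more such siRNAs out of three were retested with fresh siRNAs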
# Meaning of the calls: active = raised luciferase; inactive = no rise
# In all, the deposit lists about 59,000 reagents; shown is an unselected part. About 1,510 of all reagents (2.6%) were called active. 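Calls use total luciferase alone and ignore viability, so some active siRNAs may act by altering cell number.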 Reagents against one gene are numbered here. Not all columns of the deposit are shown. Reagent sequences are not shown.
Target gene,reagent no.,"total luciferase, z-score","total luciferase, % of control","luciferase per cell, z-score",Call
FLACC1,1,-0.263,76.7,0.709,inactive
FLACC1,2,-0.248,76.9,0.175,inactive
FLACC1,3,-0.298,76,-0.717,inactive
SEMA6D,1,-2.24,37.3,-2.4,inactive
SEMA6D,2,-0.805,65.9,0.0437,inactive
SEMA6D,3,0.328,88.4,1.02,inactive
RCC1L,1,-1.13,59.4,-0.698,inactive
RCC1L,2,-0.268,76.6,-1.3,inactive
RCC1L,3,-0.553,70.9,0.909,inactive
RCC1L,4,0.337,88.6,0.256,inactive
RCC1L,5,-0.529,71.4,-0.313,inactive
RCC1L,6,0.0357,82.6,-0.0308,inactive
SLC51A,1,0.091,83.7,-0.127,inactive
SLC51A,2,-0.171,78.5,-0.0249,inactive
SLC51A,3,-0.000635,81.9,1.21,inactive
MRPS33,1,-0.404,73.8,-0.376,inactive
MRPS33,2,2.16,125,1.99,inactive
MRPS33,3,1.7,116,1.09,inactive
B4GALNT3,1,-0.243,77,0.447,inactive
B4GALNT3,2,-1.12,59.7,-0.888,inactive
B4GALNT3,3,3.61,154,1.61,active
CDHR4,1,-0.213,77.7,0.0203,inactive
CDHR4,2,-1.43,53.3,-0.451,inactive
CDHR4,3,-1.07,60.6,-1.31,inactive
SH2B2,1,0.418,90.2,-0.073,inactive
SH2B2,2,-1.45,53.1,-2.09,inactive
SH2B2,3,-0.227,77.4,-0.587,inactive
HTN3,1,-0.54,71.1,-0.78,inactive
HTN3,2,0.0157,82.2,1.32,inactive
HTN3,3,-0.906,63.9,-0.962,inactive
PRKAG3,1,0.791,97.6,0.501,inactive
PRKAG3,2,-2.94,23.5,-2.31,inactive
PRKAG3,3,-1.28,56.3,-1.32,inactive
USP12,1,-0.968,62.6,-0.837,inactive
USP12,2,2.16,125,1.75,inactive
USP12,3,0.257,87,-0.303,inactive
CENPVL1,1,0.724,96.3,0.374,inactive
CENPVL1,2,0.541,92.6,0.164,inactive
CENPVL1,3,2.33,128,1.81,inactive
PPP2R5E,1,1.54,113,1.47,inactive
PPP2R5E,2,-0.81,65.8,-0.961,inactive
PPP2R5E,3,3.21,146,2.67,active
CEP63,1,1.54,113,1.98,inactive
CEP63,2,-0.531,71.3,-0.629,inactive
CEP63,3,0.0339,82.6,0.489,inactive
EIF3L,1,1.38,109,1.52,inactive
EIF3L,2,-1.81,45.9,-0.352,inactive
EIF3L,3,-0.0564,80.8,-0.534,inactive
SYNJ2BP,1,0.255,87,-0.0304,inactive
SYNJ2BP,2,0.674,95.3,0.445,inactive
SYNJ2BP,3,-0.471,72.5,-0.00484,inactive
KCNK9,1,0.579,93.4,0.655,inactive
KCNK9,2,-0.613,69.7,-0.885,inactive
KCNK9,3,-1.1,60,-1.39,inactive
FREM1,1,2.73,136,1.97,inactive
FREM1,2,-0.689,68.2,-0.626,inactive
FREM1,3,-0.832,65.3,-0.0507,inactive
